Publication PMC4601081, “A Single α Helix Drives Extensive Remodeling of the Proteasome Lid and Completion of Regulatory Particle Assembly” (Cell, 2015)
Results are given in words; binding and its absence hold for the method and conditions named. Some results given as binding are weak or reduced against the parent protein; the word gives no strength. For some assays here: Tags and fused reporters may be left off the sequences shown. One block for each binder: values may come before it.

What was measured:
[1] = target: T1, Rpn3, subunit of LP2 and lid purified from yeast (S. cerevisiae), P40016; assay: cross-linking; QCLMS of lid purified from yeast as a whole complex: BS3-d0 / BS3-d4 at 1:200 protein to cross-linker, Buffer HA, 30°C 1 h; monomeric cross-linked complex cut from SDS-PAGE, trypsin, LC-MS/MS; both purified; conditions: remark: other sources report otherwise
T1 chain: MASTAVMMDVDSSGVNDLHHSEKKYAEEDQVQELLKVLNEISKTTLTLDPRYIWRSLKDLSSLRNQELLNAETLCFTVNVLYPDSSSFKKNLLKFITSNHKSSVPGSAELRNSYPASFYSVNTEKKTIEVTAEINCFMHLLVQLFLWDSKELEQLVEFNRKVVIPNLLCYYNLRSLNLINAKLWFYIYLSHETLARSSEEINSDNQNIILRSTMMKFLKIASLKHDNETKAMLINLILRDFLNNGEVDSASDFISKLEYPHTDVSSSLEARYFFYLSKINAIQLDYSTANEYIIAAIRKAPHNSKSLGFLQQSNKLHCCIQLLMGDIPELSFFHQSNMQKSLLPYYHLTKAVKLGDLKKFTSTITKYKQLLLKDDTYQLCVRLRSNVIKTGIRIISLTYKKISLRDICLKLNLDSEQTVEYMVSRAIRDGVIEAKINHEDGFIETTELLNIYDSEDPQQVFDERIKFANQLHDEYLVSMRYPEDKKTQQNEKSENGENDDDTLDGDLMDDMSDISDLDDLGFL

[2] = target: the other LP2 subunits (Rpn3, Rpn5, Rpn7, Rpn8, Rpn9, Rpn11, Sem1), recombinant (S. cerevisiae) (UniProt P40016); assay: co-purification after coexpression; Rpn6 variants coexpressed with the other LP2 subunits in E. coli; affinity purification and gel filtration, SDS-PAGE
[3] = target: T2, Rpn11, subunit of LP2 and lid purified from yeast (S. cerevisiae), P43588; assay: cross-linking; QCLMS of LP2 purified from yeast as a whole complex: BS3-d0 / BS3-d4 at 1:200 protein to cross-linker, Buffer HA, 30°C 1 h; monomeric cross-linked complex cut from SDS-PAGE, trypsin, LC-MS/MS; both purified; conditions: remark: other sources report otherwise
T2 chain: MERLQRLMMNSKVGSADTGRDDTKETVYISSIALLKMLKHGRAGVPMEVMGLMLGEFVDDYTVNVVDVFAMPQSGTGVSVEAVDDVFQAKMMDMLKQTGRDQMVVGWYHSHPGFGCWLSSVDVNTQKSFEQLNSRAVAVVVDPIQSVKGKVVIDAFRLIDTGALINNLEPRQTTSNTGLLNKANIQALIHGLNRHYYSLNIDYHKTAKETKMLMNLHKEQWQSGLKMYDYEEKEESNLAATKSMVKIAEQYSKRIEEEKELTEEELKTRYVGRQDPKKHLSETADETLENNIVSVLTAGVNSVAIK

[4] = target: T2, Rpn11, subunit of LP2 and lid purified …; assay: negative-stain EM; single-particle 3D reconstruction of LP2 purified from yeast at 16 Å; ~50 nM complex in Buffer A, 2% uranyl acetate; both purified; conditions: remark: other sources report otherwise
[5] = target: T3, Rpn7, subunit of LP2 and lid purified from yeast (S. cerevisiae), Q06103; assay: as above; conditions: remark: other sources report otherwise
T3 chain: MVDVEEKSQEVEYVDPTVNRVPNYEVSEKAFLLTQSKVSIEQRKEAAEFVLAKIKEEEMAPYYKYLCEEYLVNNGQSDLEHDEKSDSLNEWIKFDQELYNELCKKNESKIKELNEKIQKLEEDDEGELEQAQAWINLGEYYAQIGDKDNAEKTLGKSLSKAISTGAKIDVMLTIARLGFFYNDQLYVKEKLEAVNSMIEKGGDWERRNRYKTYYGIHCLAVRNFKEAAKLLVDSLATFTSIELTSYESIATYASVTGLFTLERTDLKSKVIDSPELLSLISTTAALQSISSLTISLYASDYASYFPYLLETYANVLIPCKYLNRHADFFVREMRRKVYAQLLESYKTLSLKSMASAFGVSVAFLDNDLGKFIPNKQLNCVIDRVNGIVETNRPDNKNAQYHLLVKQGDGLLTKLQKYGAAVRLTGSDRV

[6] = target: T4, Rpn8, subunit of LP2 and lid purified from yeast (S. cerevisiae), Q08723; assay: cross-linking; QCLMS of LP2 purified from yeast as a whole complex: BS3-d0 / BS3-d4 at 1:200 protein to cross-linker, Buffer HA, 30°C 1 h; monomeric cross-linked complex cut from SDS-PAGE, trypsin, LC-MS/MS; both purified; conditions: remark: other sources report otherwise
T4 chain: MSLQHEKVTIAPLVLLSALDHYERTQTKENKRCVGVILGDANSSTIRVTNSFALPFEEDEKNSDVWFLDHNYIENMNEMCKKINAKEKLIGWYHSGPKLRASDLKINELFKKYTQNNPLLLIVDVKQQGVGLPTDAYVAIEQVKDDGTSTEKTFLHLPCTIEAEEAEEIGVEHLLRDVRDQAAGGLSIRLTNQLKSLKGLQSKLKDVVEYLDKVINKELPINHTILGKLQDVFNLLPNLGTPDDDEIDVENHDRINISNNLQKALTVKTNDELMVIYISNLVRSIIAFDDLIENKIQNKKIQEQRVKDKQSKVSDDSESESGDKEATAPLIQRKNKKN

[7] = target: T4, Rpn8, subunit of LP2 and lid purified …; assay: cross-linking; QCLMS of lid purified from yeast as a whole complex: BS3-d0 / BS3-d4 at 1:200 protein to cross-linker, Buffer HA, 30°C 1 h; monomeric cross-linked complex cut from SDS-PAGE, trypsin, LC-MS/MS; both purified; conditions: remark: other sources report otherwise
[8] = target: T5, Rpn9, subunit of LP2 and lid purified from yeast (S. cerevisiae), Q04062; assay: as above; conditions: remark: other sources report otherwise
T5 chain: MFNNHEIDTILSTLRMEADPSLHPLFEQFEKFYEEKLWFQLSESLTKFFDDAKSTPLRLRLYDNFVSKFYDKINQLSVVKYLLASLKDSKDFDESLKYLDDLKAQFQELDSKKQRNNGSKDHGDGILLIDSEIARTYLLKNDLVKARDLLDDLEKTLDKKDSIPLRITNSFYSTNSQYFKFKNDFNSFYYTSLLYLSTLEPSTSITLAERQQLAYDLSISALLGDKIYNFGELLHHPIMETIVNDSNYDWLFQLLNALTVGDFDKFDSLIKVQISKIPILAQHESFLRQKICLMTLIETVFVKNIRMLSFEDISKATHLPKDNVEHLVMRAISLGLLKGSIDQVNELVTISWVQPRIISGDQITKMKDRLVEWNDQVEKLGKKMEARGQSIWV

[9] = target: T6, Sem1, subunit of LP2 and lid purified from yeast (S. cerevisiae), O94742; assay: as above; conditions: remark: other sources report otherwise
T6 chain: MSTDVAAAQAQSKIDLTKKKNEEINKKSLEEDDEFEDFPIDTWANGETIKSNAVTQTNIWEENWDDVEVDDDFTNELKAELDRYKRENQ

B1: Rpn8, subunit of LP2 and lid purified from yeast (natural protein, S. cerevisiae, UniProt Q08723 1-338, looked up)
chain: MSLQHEKVTIAPLVLLSALDHYERTQTKENKRCVGVILGDANSSTIRVTNSFALPFEEDEKNSDVWFLDHNYIENMNEMCKKINAKEKLIGWYHSGPKLRASDLKINELFKKYTQNNPLLLIVDVKQQGVGLPTDAYVAIEQVKDDGTSTEKTFLHLPCTIEAEEAEEIGVEHLLRDVRDQAAGGLSIRLTNQLKSLKGLQSKLKDVVEYLDKVINKELPINHTILGKLQDVFNLLPNLGTPDDDEIDVENHDRINISNNLQKALTVKTNDELMVIYISNLVRSIIAFDDLIENKIQNKKIQEQRVKDKQSKVSDDSESESGDKEATAPLIQRKNKKN
notes: Rpn8, S. cerevisiae proteasome lid subunit; source: purified from S. cerevisiae as part of LP2 or lid
- binding [1]: binds

B4: GFP-Rpn6 fusion (protein, UniProt Q12377 1-434)
chain: MSLPGSKLEEARRLVNEKQYNEAEQVYLSLLDKDSSQSSAAAGASVDDKRRNEQETSILELGQLYVTMGAKDKLREFIPHSTEYMMQFAKSKTVKVLKTLIEKFEQVPDSLDDQIFVCEKSIEFAKREKRVFLKHSLSIKLATLHYQKKQYKDSLALINDLLREFKKLDDKPSLVDVHLLESKVYHKLRNLAKSKASLTAARTAANSIYCPTQTVAELDLMSGILHCEDKDYKTAFSYFFESFESYHNLTTHNSYEKACQVLKYMLLSKIMLNLIDDVKNILNAKYTKETYQSRGIDAMKAVAEAYNNRSLLDFNTALKQYEKELMGDELTRSHFNALYDTLLESNLCKIIEPFECVEISHISKIIGLDTQQVEGKLSQMILDKIFYGVLDQGNGWLYVYETPNQDATYDSALELVGQLNKVVDQLFEKASVLY
- binding [2]: binds

B5: Rpn6, subunit of LP2 and lid purified from yeast, Q12377 1-434 (protein)
chain: MSLPGSKLEEARRLVNEKQYNEAEQVYLSLLDKDSSQSSAAAGASVDDKRRNEQETSILELGQLYVTMGAKDKLREFIPHSTEYMMQFAKSKTVKVLKTLIEKFEQVPDSLDDQIFVCEKSIEFAKREKRVFLKHSLSIKLATLHYQKKQYKDSLALINDLLREFKKLDDKPSLVDVHLLESKVYHKLRNLAKSKASLTAARTAANSIYCPTQTVAELDLMSGILHCEDKDYKTAFSYFFESFESYHNLTTHNSYEKACQVLKYMLLSKIMLNLIDDVKNILNAKYTKETYQSRGIDAMKAVAEAYNNRSLLDFNTALKQYEKELMGDELTRSHFNALYDTLLESNLCKIIEPFECVEISHISKIIGLDTQQVEGKLSQMILDKIFYGVLDQGNGWLYVYETPNQDATYDSALELVGQLNKVVDQLFEKASVLY
- binding [3]: binds
- binding [4]: binds
- binding [5]: binds

The next lines start with the values.

- binding [2]: binds
B2: Δ172-rpn6, N-terminally truncated Rpn6 (domain or fragment, UniProt Q12377 173-434)
chain: SLVDVHLLESKVYHKLRNLAKSKASLTAARTAANSIYCPTQTVAELDLMSGILHCEDKDYKTAFSYFFESFESYHNLTTHNSYEKACQVLKYMLLSKIMLNLIDDVKNILNAKYTKETYQSRGIDAMKAVAEAYNNRSLLDFNTALKQYEKELMGDELTRSHFNALYDTLLESNLCKIIEPFECVEISHISKIIGLDTQQVEGKLSQMILDKIFYGVLDQGNGWLYVYETPNQDATYDSALELVGQLNKVVDQLFEKASVLY

- binding [2]: binds
B3: Δ211-rpn6, N-terminally truncated Rpn6 (domain or fragment, UniProt Q12377 212-434)
chain: TQTVAELDLMSGILHCEDKDYKTAFSYFFESFESYHNLTTHNSYEKACQVLKYMLLSKIMLNLIDDVKNILNAKYTKETYQSRGIDAMKAVAEAYNNRSLLDFNTALKQYEKELMGDELTRSHFNALYDTLLESNLCKIIEPFECVEISHISKIIGLDTQQVEGKLSQMILDKIFYGVLDQGNGWLYVYETPNQDATYDSALELVGQLNKVVDQLFEKASVLY

- binding [6]: binds
- binding [7]: binds
B6: Rpn7, subunit of LP2 and lid purified from yeast (natural protein, S. cerevisiae, UniProt Q06103 1-429, looked up)
chain: MVDVEEKSQEVEYVDPTVNRVPNYEVSEKAFLLTQSKVSIEQRKEAAEFVLAKIKEEEMAPYYKYLCEEYLVNNGQSDLEHDEKSDSLNEWIKFDQELYNELCKKNESKIKELNEKIQKLEEDDEGELEQAQAWINLGEYYAQIGDKDNAEKTLGKSLSKAISTGAKIDVMLTIARLGFFYNDQLYVKEKLEAVNSMIEKGGDWERRNRYKTYYGIHCLAVRNFKEAAKLLVDSLATFTSIELTSYESIATYASVTGLFTLERTDLKSKVIDSPELLSLISTTAALQSISSLTISLYASDYASYFPYLLETYANVLIPCKYLNRHADFFVREMRRKVYAQLLESYKTLSLKSMASAFGVSVAFLDNDLGKFIPNKQLNCVIDRVNGIVETNRPDNKNAQYHLLVKQGDGLLTKLQKYGAAVRLTGSDRV
notes: Rpn7, S. cerevisiae proteasome lid subunit; source: purified from S. cerevisiae as part of LP2 or lid

- binding [8]: binds
- binding [9]: binds
B7: Rpn11, subunit of LP2 and lid purified from yeast (natural protein, S. cerevisiae, UniProt P43588 1-306, looked up)
chain: MERLQRLMMNSKVGSADTGRDDTKETVYISSIALLKMLKHGRAGVPMEVMGLMLGEFVDDYTVNVVDVFAMPQSGTGVSVEAVDDVFQAKMMDMLKQTGRDQMVVGWYHSHPGFGCWLSSVDVNTQKSFEQLNSRAVAVVVDPIQSVKGKVVIDAFRLIDTGALINNLEPRQTTSNTGLLNKANIQALIHGLNRHYYSLNIDYHKTAKETKMLMNLHKEQWQSGLKMYDYEEKEESNLAATKSMVKIAEQYSKRIEEEKELTEEELKTRYVGRQDPKKHLSETADETLENNIVSVLTAGVNSVAIK
notes: Rpn11, S. cerevisiae proteasome lid subunit; source: purified from S. cerevisiae as part of LP2 or lid
